Measured values from PMC8771839.
No constants are given. Whether binding was seen depends on the method and setting. Binding seen in cells or lysates may run through a third protein. A yes stands for co-enrichment or nearness to the bait. Other partners may have been found. Where a sequence is shown, tags or fusion partners need not be part of it.

Sequences of proteins named here, by UniProt entry; tags and fusion partners are left off.
UniProt Q13200: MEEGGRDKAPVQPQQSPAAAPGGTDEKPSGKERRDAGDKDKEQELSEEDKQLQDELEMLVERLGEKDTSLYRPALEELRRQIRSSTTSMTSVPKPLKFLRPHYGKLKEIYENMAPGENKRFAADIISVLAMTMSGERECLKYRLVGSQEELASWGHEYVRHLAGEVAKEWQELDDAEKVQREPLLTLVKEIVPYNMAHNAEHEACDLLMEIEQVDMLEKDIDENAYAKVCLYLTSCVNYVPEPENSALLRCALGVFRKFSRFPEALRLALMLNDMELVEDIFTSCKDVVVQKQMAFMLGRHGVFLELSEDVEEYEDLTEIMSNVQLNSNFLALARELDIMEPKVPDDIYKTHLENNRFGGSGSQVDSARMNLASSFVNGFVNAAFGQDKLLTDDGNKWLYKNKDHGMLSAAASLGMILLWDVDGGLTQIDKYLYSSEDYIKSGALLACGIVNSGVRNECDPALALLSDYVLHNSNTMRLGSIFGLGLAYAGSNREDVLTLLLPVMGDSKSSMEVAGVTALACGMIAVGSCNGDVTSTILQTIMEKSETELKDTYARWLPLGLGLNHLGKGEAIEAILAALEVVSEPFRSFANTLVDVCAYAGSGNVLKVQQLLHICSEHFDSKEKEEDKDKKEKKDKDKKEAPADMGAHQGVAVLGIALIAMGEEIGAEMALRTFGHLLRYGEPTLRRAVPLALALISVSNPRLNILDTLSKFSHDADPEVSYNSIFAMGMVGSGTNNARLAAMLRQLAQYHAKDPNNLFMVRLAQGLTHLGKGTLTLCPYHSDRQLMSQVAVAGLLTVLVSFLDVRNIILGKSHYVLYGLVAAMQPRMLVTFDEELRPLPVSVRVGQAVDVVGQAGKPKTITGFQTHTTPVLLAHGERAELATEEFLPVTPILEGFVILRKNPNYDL

Molecular target: T1, DIRAS family GTPase 2 (DIRAS2), FLAG-tagged (human) (UniProt Q96HU8)
T1 sequence: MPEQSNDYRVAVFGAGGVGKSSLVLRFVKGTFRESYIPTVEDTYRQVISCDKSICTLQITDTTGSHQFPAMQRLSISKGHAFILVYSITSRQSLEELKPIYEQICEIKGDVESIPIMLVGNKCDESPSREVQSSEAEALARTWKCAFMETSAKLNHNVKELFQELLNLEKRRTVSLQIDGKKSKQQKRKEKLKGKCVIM
Assay: affinity purification with mass spectrometry; FLAG-tagged protein enrichment from oe-DIRAS2 RKO cells and their controls; Coomassie blue-stained gel, then LC-MS

26S proteasome non-ATPase regulatory subunit 2 (PSMD2) (from UniProt Q13200 1-908)
binding: binds
